Results on 34 targets are retold here after the supplement of paper PMC10849652.

The chains behind the UniProt entries cited, without tags or fusion partners. Where a name states a change or a piece, a line headed by the entry shows the natural chain unless it says otherwise.
UniProt P78330: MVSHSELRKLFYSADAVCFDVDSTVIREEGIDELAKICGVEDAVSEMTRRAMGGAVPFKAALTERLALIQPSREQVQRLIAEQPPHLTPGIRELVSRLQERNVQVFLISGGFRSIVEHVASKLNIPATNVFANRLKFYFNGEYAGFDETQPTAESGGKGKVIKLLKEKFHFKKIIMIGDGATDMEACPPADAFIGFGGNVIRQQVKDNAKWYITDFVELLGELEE
UniProt Q9BXR0: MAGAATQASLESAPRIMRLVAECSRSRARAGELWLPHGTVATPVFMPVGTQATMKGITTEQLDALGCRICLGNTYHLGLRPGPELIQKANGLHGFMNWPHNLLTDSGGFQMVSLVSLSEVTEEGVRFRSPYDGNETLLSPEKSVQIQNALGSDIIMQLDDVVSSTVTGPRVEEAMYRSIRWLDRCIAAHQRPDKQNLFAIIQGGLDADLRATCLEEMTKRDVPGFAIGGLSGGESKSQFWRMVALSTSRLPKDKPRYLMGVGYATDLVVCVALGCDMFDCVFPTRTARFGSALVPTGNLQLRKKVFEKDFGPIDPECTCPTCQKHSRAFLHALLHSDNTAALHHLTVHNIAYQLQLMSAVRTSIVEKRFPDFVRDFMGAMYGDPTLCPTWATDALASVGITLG
UniProt P20962: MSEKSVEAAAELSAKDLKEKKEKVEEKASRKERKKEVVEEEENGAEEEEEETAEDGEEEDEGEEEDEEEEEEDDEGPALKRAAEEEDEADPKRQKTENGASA
UniProt Q15269: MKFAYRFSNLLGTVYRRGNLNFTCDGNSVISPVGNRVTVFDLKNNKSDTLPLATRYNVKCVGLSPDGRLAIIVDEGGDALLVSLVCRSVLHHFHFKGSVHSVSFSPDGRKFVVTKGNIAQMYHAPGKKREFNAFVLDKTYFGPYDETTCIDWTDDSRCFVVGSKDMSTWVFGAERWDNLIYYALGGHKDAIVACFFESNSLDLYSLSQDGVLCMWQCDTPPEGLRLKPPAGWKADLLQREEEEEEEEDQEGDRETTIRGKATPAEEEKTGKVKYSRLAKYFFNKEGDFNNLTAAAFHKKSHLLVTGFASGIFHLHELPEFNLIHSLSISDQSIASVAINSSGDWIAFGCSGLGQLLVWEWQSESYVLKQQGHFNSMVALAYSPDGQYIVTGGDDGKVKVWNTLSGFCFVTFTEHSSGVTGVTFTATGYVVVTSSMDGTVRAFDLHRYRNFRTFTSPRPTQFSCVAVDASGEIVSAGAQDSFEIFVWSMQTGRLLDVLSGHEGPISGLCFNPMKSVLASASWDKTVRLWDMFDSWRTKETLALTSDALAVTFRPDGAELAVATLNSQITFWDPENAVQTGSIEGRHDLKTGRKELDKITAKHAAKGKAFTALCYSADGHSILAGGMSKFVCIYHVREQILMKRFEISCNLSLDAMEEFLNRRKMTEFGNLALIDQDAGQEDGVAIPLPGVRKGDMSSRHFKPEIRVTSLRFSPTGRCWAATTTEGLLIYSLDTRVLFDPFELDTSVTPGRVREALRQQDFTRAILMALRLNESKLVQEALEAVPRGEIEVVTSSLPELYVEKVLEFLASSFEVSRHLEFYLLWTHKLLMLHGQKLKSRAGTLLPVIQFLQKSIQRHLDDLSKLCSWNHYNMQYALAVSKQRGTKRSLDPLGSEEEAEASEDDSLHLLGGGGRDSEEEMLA
UniProt Q06323: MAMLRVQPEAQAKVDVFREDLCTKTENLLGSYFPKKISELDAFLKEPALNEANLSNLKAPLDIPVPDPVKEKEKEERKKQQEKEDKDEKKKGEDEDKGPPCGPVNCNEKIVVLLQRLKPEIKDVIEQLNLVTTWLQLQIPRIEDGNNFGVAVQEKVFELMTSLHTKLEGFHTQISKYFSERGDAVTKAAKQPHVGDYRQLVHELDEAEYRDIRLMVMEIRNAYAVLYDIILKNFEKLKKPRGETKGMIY
UniProt Q9NRG1: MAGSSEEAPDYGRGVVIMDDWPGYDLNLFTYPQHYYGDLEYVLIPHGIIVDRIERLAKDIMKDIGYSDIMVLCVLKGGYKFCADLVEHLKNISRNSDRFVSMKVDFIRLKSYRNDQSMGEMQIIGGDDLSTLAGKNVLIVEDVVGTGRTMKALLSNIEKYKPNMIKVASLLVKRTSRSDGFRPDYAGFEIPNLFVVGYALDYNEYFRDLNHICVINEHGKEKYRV
UniProt P20618: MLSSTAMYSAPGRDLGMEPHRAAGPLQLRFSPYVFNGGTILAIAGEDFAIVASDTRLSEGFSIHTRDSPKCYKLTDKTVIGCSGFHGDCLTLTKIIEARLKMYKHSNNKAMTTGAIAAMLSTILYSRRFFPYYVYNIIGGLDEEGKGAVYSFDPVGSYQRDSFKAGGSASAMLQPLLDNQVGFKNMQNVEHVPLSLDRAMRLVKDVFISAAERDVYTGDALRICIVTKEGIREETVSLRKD
UniProt Q8TB72: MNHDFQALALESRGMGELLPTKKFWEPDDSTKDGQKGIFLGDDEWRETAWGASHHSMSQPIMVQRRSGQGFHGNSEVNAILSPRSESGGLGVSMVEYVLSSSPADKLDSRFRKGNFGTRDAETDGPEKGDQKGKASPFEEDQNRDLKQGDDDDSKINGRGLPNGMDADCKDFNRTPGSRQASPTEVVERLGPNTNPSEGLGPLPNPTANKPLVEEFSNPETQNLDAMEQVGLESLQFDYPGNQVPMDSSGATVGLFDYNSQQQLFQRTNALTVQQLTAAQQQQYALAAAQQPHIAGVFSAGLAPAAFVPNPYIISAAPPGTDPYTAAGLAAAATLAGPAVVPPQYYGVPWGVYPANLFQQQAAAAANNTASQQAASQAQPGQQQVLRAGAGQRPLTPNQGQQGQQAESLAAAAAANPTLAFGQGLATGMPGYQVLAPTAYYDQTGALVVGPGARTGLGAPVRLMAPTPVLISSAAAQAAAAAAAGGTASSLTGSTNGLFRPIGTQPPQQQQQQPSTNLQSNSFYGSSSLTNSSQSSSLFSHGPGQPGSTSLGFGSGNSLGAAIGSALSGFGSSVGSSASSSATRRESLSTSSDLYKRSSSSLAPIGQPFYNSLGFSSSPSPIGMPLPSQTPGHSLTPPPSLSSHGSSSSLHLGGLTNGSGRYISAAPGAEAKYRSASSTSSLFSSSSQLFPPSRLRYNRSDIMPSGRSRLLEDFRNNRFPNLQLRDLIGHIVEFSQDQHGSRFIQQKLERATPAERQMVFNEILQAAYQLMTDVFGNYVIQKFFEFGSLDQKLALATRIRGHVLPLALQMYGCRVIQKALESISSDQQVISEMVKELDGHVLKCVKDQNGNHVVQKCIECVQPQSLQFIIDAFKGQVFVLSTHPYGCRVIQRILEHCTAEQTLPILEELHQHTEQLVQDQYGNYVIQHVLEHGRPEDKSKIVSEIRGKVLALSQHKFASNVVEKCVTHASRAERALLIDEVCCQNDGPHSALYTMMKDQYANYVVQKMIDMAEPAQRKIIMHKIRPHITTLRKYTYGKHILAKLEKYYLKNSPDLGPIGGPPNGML
UniProt Q3MIT2: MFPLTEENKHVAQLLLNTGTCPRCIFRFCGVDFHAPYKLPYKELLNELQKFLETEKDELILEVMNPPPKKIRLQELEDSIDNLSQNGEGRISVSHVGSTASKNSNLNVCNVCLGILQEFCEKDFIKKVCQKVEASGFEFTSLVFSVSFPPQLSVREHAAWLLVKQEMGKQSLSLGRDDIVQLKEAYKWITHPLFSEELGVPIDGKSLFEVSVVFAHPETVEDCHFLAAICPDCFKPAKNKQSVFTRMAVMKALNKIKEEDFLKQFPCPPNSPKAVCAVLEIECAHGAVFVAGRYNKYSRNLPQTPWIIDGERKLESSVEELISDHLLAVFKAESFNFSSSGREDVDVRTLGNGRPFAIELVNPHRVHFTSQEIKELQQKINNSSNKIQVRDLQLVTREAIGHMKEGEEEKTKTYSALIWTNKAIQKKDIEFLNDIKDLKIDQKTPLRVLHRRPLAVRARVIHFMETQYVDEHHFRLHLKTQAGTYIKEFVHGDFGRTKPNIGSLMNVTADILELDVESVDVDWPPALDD
UniProt Q5JS54: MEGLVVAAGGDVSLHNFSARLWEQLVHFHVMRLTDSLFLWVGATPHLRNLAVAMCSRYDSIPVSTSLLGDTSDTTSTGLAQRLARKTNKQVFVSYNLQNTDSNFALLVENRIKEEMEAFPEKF
UniProt Q9ULZ3, whole entry, looked up: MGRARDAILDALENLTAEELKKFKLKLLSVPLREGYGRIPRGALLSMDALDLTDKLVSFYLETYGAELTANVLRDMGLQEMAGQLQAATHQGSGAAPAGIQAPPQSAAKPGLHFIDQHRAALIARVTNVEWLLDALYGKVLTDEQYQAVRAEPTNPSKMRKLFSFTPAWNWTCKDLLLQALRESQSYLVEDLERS
UniProt Q9BVG9: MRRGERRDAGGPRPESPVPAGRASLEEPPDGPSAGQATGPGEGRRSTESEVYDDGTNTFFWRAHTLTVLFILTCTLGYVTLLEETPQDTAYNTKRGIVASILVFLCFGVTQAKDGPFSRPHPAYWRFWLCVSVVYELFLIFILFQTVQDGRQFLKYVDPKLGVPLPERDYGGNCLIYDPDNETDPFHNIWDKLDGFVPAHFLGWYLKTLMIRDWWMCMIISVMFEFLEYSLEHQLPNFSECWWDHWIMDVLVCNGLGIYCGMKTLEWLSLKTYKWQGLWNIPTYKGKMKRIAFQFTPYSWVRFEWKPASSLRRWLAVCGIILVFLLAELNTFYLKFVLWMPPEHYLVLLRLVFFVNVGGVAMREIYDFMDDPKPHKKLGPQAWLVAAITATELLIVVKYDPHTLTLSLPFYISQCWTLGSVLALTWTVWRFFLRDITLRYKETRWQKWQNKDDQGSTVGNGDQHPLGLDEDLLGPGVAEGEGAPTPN
UniProt Q13308: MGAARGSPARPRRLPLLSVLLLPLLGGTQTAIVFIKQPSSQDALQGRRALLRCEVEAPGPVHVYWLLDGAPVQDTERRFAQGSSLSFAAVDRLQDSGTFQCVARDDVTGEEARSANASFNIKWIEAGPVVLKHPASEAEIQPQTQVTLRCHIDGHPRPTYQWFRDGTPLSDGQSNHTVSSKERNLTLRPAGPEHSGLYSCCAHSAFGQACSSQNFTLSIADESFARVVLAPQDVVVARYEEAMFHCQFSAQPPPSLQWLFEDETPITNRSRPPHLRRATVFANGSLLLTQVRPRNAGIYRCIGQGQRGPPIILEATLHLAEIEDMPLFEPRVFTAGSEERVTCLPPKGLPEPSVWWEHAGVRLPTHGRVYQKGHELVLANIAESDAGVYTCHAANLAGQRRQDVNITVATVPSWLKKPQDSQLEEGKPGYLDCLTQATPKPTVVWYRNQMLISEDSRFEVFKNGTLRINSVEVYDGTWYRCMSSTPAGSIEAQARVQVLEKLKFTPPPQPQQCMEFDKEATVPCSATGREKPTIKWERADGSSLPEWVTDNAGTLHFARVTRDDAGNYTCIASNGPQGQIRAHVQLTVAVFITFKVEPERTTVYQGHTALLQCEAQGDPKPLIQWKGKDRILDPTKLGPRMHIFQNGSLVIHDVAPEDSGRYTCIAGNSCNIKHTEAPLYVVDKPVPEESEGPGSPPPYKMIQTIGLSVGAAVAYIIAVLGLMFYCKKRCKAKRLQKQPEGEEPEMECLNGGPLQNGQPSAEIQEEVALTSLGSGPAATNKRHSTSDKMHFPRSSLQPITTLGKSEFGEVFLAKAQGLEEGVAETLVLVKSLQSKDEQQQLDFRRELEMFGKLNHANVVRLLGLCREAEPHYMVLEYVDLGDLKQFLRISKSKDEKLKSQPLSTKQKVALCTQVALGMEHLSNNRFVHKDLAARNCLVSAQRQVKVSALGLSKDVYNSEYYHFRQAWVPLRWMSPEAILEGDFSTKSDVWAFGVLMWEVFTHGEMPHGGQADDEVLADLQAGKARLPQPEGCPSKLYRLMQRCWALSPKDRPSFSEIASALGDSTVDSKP
UniProt Q9BRP8: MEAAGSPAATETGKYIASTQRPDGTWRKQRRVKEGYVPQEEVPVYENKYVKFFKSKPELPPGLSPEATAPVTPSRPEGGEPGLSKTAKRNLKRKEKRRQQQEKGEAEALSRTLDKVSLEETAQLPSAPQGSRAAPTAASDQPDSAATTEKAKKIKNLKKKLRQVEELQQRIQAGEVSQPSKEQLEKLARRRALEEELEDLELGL
UniProt P25786: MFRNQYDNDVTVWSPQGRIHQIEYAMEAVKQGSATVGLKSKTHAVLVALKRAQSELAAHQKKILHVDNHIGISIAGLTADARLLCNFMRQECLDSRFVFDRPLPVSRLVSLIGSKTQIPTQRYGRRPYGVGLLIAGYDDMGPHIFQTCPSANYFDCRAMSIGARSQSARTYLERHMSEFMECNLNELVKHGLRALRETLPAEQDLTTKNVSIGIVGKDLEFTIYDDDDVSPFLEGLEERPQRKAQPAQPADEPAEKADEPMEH
UniProt P28066: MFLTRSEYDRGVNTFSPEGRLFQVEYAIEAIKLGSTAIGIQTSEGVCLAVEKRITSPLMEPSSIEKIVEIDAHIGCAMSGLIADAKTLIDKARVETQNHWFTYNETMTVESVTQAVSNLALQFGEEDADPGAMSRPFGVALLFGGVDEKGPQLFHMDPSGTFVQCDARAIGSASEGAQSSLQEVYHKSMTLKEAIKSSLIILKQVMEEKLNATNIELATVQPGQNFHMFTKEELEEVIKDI

Some of the results follow. Residues, ends and D or L forms follow the SMILES beside them. *: point of attachment. Cbz = O=C(OCc1ccccc1)*

Compound in the experiment: CC(C)C[C@@H](C=O)NC(=O)[C@H](CC(C)C)NC(=O)[C@H](CC(C)C)NC(=O)OCc1ccccc1
The experiment can be described thus: log2 fold change, soluble protein after heating vs DMSO (PISA); higher = thermal stabilisation; K562 cells, 10 uM, 30 min; active = over 0.2 and 3.5 SD of the protein, either way, in both replicates (recomputed). Summed up: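 For each measurement, 10 μM compound was applied for 30 min to K562 cells at 2×10^6 cells/mL. Aliquots were heated for 3 min across 48°C-58°C, pooled, and extracted in PBS with 0.5% NP-40 at 4°C; the supernatant after 21,000xg for 90 min was soluble protein. This was quantified by TMTpro 16plex LC-MS/MS with channel sums equalised, and thermal stability was reported relative to control samples from duplicates, on a log2 fold-change scale.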
In the case of PXMP2 (UniProt Q9NR77), the log2 fold change is inactive: -0.039.
Next, PSPH (UniProt P78330): inactive: -0.014.
On to QTRT1 (UniProt Q9BXR0), for which the log2 fold change was inactive: -0.027.
Turning to PUS7 isoform 2 (UniProt Q96PZ0), the log2 fold change is inactive: 0.008.
As for PZP (UniProt P20742), the log2 fold change was inactive: 0.041.
Next, QPCTL (UniProt Q9NXS2): inactive: 0.073; PTMS (UniProt P20962): inactive: -0.023.
The result for PWP2 (UniProt Q15269) reads inactive: 0.067; that for PSMA8 (UniProt Q8TAA3), inactive: -0.072; that for QDPR (UniProt P09417), inactive: -0.038.
Turning to PSME1 (UniProt Q06323), the log2 fold change was inactive: -0.063.
For the target PSME2 (UniProt Q9UL46), the log2 fold change is inactive: -0.054.
For PRTFDC1 (UniProt Q9NRG1), the log2 fold change was inactive: -0.045.
For PSMB1 (UniProt P20618), the log2 fold change was inactive: -0.037.
The result for PTPRA (UniProt P18433) reads inactive: 0.065; that for PSMD4 (UniProt P55036), inactive: -0.131.
Turning to PUS7L (UniProt Q9H0K6), the log2 fold change was inactive: 0.036.
Regarding PSMD14 (UniProt O00487), the log2 fold change is inactive: -0.237.
In the case of PUM2 (UniProt Q8TB72), the log2 fold change is inactive: 0.028.
Next, PTPRC (UniProt P08575): inactive: -0.007; QTRT2 isoform 4 (UniProt Q9H974): inactive: -0.002; PUS10 (UniProt Q3MIT2): inactive: 0.057.
In the case of PSMG4 isoform 2 (UniProt Q5JS54), the log2 fold change was inactive: -0.017.
The result for PYCARD (UniProt Q9ULZ3) reads inactive: -0.082; that for PSMA7 (UniProt O14818), inactive: -0.052.
As to PTDSS2 (UniProt Q9BVG9), the log2 fold change was inactive: 0.008.
With QSOX2 (UniProt Q6ZRP7), the log2 fold change was inactive: -0.018.
Take PTK7 isoform 6 (UniProt Q13308): the log2 fold change was inactive: 0.085.
Regarding PYM1 (UniProt Q9BRP8), the log2 fold change was inactive: 0.03.
As to PSMA1 isoform 2 (UniProt P25786), the log2 fold change was inactive: -0.143.
In the case of PSMA5 (UniProt P28066), the log2 fold change was inactive: -0.073.
Regarding PTCD3 (UniProt Q96EY7), the log2 fold change was inactive: 0.048.
As to PXN (UniProt P49023), the log2 fold change was inactive: 0.024.
On to PSAP isoform 3 (UniProt P07602), for which the log2 fold change was inactive: 0.118.
